Data on 1 substance can be found in publication PMC4986891.

Amino acid sequences for entries named in this document (tags omitted).
UniProt Q10055: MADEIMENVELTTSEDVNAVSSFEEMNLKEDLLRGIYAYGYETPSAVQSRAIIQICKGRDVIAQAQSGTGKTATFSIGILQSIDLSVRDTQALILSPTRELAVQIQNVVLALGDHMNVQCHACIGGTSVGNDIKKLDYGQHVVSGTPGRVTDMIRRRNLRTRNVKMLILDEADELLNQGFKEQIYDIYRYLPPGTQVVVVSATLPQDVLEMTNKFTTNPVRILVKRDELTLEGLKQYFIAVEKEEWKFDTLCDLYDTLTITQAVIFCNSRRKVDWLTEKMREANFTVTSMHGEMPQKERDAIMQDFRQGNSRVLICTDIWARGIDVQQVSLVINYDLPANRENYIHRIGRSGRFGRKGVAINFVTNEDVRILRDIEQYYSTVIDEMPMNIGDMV

The target of the assay is T1, Mnh1-FTP (S. pombe) (UniProt O43037).
T1 sequence: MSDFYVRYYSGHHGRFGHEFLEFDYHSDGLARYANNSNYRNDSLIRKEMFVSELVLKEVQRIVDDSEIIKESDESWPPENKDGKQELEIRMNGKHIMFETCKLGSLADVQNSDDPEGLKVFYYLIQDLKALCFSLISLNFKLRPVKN
The experiment in a line: co-IP; S. pombe whole-cell lysates (Benzonase-treated) of strains with epitope-tagged proteins; FTP-tagged proteins pulled down with IgG Sepharose, Myc-, HA- and GFP-tagged proteins with Protein A/G agarose and antibody; IP 2 h at 4 C; Western blot; also done in strains lacking Y14 or Rnps1.

These are yes or no findings as the source states them, for the method shown. In cells and extracts the contact can be indirect. Some binding calls cover weakened binding; strength is not graded here.

Take pFal1-Myc (from UniProt Q10055 1-394): the binding result is recorded as “binds”.
